We go through one compound from patent US20040180862A1, “Compositions and methods for inhibiting bone resorption” (priority 2001, published 2004).

Data set [1] deals with skin. Put plainly: Skin irritation after subcutaneous injection, histology (hematoxylin and eosin, affected area). Details: species or system Rats. The conditions noted are these: rat, in vivo, sc, 0.5 mg/kg.
In data set [2] the test system is skin. The conditions noted are these: rat, in vivo, sc, 0.5 mg/kg, 5 days.

Molecules are shown by their SMILES.

Turning to `NCCCC(O)(P(=O)(O)O)P(=O)(O)O` [ALN, 4-amino-1-hydroxybutylidene-1,1-bisphosphonic acid monosodium trihydrate], in the data set with skin [1], the skin irritation result is “Skin irritation induced”. Also, in the data set on skin [2], the “volume of affected skin area” value came out at 280 mm^3.
